Test results published in PMC6092398, “Revealing circadian mechanisms of integration and resilience by visualizing clock proteins working in real time” (Nature Communications, 2018).
These are yes or no findings as the source states them, for the method shown.

Protein sequences, listed by entry. Tags and fused reporters are not part of them. Residues count along the entry.
UniProt P02769, residues 25-607: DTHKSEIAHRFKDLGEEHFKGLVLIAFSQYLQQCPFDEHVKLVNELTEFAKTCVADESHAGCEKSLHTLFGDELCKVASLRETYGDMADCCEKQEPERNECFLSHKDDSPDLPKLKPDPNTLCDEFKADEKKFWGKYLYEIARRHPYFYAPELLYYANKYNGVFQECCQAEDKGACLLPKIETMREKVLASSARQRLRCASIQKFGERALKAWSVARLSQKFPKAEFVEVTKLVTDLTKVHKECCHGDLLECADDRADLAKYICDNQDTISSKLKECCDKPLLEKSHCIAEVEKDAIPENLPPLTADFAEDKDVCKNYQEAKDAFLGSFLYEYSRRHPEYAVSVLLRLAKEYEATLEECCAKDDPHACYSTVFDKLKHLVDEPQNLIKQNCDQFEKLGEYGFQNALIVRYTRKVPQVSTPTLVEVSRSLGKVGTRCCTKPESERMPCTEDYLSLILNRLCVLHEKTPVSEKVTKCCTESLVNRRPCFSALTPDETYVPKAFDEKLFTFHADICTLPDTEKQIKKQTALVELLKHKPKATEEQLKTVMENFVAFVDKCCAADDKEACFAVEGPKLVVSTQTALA

B1: KaiA (natural protein, S. elongatus, UniProt Q79PF6 1-284, looked up)
chain: MLSQIAICIWVESTAILQDCQRALSADRYQLQVCESGEMLLEYAQTHRDQIDCLILVAANPSFRAVVQQLCFEGVVVPAIVVGDRDSEDPDEPAKEQLYHSAELHLGIHQLEQLPYQVDAALAEFLRLAPVETMADHIMLMGANHDPELSSQQRDLAQRLQERLGYLGVYYKRDPDRFLRNLPAYESQKLHQAMQTSYREIVLSYFSPNSNLNQSIDNFVNMAFFADVPVTKVVEIHMELMDEFAKKLRVEGRSEDILLDYRLTLIDVIAHLCEMYRRSIPRET
notes: circadian clock protein KaiA of Synechococcus elongatus, native (unmutated); also called native KaiA; KaiA dimer; source: E. coli BL21 or DH5α, pGEX-based construct, purified (glutathione-agarose, HRV3C cleavage on the column, Q Sepharose); not shown: GST, N-terminal, cleaved

Legend:
[1] = target: T1, native wild-type KaiC hexamer (KaiC^WT) (S. elongatus) (UniProt Q79PF4); assay: high-speed atomic force microscopy (HS-AFM); BSA or GFP instead of KaiA with KaiC^WT hexamers (Supplementary Fig. 3); surface and concentrations not told in the text shown; both purified
T1 sequence: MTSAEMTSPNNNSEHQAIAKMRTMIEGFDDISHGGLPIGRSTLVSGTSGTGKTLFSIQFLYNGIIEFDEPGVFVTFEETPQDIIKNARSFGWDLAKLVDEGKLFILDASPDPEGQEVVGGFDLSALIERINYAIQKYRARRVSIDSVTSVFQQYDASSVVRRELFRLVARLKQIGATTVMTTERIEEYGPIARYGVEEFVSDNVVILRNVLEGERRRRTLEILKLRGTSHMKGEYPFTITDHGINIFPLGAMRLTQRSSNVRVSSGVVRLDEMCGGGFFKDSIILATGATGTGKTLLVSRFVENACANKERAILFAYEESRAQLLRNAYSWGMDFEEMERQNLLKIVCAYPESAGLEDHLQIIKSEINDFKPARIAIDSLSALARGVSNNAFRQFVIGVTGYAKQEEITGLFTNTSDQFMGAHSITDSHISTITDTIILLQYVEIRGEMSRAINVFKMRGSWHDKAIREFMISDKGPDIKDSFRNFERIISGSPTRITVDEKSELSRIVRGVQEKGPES

[2] = target: T1, native wild-type KaiC hexamer (KaiC^WT) (S. elongatus); assay: condition: only KaiC^WT on bare mica, CI end up, C-terminal tentacles unavailable; high-speed atomic force microscopy (HS-AFM); KaiC hexamers immobilised on bare mica (CI end up, C-terminal side attached to the mica), KaiA added to the observation buffer; 20 mM Tris-HCl pH 8.0, 5 mM MgCl2, no ATP, 25-28 °C (Fig. 1a, c); both purified

| Molecule | binding [1] | binding [2] |
| --- | --- | --- |
| bovine serum albumin (BSA) (from UniProt P02769 25-607) | no binding |  |
| B1 |  | no binding |
